Values from PubChem BioAssay AID504804 (Drosophila RNAi Screening Center, 2011)

- Test: 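dsRNAs that improve Kc cell survival under doxorubicin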 (primary screen)
- Cells: Drosophila Kc cells
- Knock-down reagent: long dsRNA against Drosophila genes, 0.5 µg dsRNA per well
- Time to read-out: 96 h (48 h knock-down, then 48 h drug)
- Conditions: doxorubicin 5 µg/ml for 48 h, added 48 h after dsRNA
- Read-out: 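Luminescent ATP counts per replicate, not normalised, reflecting viable cells after 48 h dsRNA knock-down followed by 48 h of 5 µg/ml doxorubicin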
- Direction: raw ATP luminescence: higher = more viable cells, protection from doxorubicin
- Call rule: 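z-score of 2 or more over plate mean in both duplicates, retained only when retests and separate dsRNAs confirm the protection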
The screen tested about 19,000 reagents; this is a random part of those with a known target gene and a result. Of all reagents, 47 (0.25%) were called active. 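Signals are raw, not normalised; exact z-scores behind calls not deposited; actives needed confirmation, so some wells reaching 2 SD are inactive.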 Unmarked entries are inactive. The numbers tell different reagents against one gene apart. Names joined by + are all predicted targets of the reagent.

With CG10674, how do the results read?
raw ATP luminescence, replicate 1: 68883; raw ATP luminescence, replicate 2: 86783

How did the screen score CG34338?
raw ATP luminescence, replicate 1: 1.56e5; raw ATP luminescence, replicate 2: 1.68e5

With CG6661, how do the results read?
raw ATP luminescence, replicate 1: 23243; raw ATP luminescence, replicate 2: 30107

How did the screen score Ythdc1?
raw ATP luminescence, replicate 1: 37557; raw ATP luminescence, replicate 2: 36603

What did the screen give for Indy-2 + CG33934 #1?
raw ATP luminescence, replicate 1: 46153; raw ATP luminescence, replicate 2: 35600

What is on record for Indy-2 + CG33934 #2?
raw ATP luminescence, replicate 1: 30760; raw ATP luminescence, replicate 2: 23520

With CG7079, what does the deposit list?
raw ATP luminescence, replicate 1: 87310; raw ATP luminescence, replicate 2: 62770

Reprinted from above (2 entries):
Indy-2 + CG33934 #2 — raw ATP luminescence, replicate 1: 30760; raw ATP luminescence, replicate 2: 23520
CG7079 — raw ATP luminescence, replicate 1: 87310; raw ATP luminescence, replicate 2: 62770

The listing continues.
What did the screen give for CG9667?
raw ATP luminescence, replicate 1: 76077; raw ATP luminescence, replicate 2: 66053

For eIF4E3, how do the results read?
raw ATP luminescence, replicate 1: 38037; raw ATP luminescence, replicate 2: 32977

What did the screen give for CG6126?
raw ATP luminescence, replicate 1: 47573; raw ATP luminescence, replicate 2: 58063

Which result is listed for ndl?
raw ATP luminescence, replicate 1: 83690; raw ATP luminescence, replicate 2: 80150

With btv #1, what was measured?
raw ATP luminescence, replicate 1: 2.22e5; raw ATP luminescence, replicate 2: 1.78e5

What is on record for btv #2?
raw ATP luminescence, replicate 1: 73937; raw ATP luminescence, replicate 2: 71093
